No constants are given. Whether binding was seen depends on the method and setting. In cells and extracts the contact can be indirect. Binding can be weak; no strength is given.
Biological target: Cherry-tagged Citron Kinase (CITK), full length (UniProt P49025)
Experiment: co-IP; RFP-Trap affinity resin on lysates of 293T cells transfected with Cherry-tagged CITK or empty vector; mild lysis buffer (150 mM NaCl, 1 mM MgCl2, 50 mM Tris pH 7, 1% NP40, 5% glycerol); blots for RFP, HDAC6 and CYLD

Protein sequences, listed by entry. Tags and fused reporters are not part of them. Lines headed by an entry give the natural chain unless they say otherwise; changes in a name come on top.
UniProt P49025: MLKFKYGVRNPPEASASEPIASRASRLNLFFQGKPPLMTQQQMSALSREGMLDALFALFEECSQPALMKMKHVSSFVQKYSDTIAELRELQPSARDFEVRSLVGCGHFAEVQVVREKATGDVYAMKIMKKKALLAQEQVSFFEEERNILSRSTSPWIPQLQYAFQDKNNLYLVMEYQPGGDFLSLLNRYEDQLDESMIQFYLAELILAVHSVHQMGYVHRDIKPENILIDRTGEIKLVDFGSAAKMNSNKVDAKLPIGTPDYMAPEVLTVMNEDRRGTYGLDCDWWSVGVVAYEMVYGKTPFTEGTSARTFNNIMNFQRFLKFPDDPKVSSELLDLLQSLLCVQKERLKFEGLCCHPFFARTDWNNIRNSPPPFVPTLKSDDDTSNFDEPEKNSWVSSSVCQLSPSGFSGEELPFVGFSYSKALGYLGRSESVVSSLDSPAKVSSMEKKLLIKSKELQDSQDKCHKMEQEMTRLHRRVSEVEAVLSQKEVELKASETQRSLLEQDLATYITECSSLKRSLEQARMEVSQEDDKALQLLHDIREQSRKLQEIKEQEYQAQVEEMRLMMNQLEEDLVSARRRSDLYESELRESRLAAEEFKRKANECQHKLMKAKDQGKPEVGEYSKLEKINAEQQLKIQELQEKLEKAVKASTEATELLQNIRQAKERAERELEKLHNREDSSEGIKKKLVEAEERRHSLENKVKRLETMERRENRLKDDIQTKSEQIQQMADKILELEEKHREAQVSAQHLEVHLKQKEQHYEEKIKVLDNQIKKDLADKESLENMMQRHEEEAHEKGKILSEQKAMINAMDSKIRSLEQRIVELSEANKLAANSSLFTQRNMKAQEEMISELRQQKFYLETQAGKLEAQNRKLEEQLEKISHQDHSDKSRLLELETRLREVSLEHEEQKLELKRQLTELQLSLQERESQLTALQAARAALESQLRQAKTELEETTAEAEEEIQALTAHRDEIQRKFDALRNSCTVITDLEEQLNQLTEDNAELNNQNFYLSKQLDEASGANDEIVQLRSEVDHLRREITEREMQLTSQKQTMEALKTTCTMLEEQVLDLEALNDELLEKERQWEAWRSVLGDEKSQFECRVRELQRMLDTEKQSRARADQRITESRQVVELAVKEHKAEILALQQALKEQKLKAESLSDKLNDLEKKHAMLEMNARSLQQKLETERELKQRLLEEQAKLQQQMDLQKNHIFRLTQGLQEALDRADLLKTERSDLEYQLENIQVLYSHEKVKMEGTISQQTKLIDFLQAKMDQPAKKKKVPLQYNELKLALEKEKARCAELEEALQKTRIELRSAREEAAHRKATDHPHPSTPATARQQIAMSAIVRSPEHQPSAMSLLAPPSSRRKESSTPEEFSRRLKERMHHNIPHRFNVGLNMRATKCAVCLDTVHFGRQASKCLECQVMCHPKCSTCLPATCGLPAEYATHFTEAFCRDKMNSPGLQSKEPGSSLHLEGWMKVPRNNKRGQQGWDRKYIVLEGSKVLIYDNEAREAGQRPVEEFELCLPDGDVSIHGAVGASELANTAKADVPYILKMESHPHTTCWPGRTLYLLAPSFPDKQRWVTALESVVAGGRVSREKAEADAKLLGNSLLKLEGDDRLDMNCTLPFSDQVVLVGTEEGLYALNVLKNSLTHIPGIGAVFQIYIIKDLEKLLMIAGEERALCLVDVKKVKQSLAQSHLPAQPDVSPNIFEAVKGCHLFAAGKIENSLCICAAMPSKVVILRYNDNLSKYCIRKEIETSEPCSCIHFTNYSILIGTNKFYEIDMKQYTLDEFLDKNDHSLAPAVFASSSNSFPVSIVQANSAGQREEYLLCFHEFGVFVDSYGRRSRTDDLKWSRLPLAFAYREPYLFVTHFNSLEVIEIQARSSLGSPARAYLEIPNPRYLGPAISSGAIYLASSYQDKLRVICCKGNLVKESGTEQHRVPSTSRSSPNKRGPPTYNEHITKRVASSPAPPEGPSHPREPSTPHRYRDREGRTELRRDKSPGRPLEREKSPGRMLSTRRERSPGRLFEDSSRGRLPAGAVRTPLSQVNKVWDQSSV
UniProt Q9UBN7: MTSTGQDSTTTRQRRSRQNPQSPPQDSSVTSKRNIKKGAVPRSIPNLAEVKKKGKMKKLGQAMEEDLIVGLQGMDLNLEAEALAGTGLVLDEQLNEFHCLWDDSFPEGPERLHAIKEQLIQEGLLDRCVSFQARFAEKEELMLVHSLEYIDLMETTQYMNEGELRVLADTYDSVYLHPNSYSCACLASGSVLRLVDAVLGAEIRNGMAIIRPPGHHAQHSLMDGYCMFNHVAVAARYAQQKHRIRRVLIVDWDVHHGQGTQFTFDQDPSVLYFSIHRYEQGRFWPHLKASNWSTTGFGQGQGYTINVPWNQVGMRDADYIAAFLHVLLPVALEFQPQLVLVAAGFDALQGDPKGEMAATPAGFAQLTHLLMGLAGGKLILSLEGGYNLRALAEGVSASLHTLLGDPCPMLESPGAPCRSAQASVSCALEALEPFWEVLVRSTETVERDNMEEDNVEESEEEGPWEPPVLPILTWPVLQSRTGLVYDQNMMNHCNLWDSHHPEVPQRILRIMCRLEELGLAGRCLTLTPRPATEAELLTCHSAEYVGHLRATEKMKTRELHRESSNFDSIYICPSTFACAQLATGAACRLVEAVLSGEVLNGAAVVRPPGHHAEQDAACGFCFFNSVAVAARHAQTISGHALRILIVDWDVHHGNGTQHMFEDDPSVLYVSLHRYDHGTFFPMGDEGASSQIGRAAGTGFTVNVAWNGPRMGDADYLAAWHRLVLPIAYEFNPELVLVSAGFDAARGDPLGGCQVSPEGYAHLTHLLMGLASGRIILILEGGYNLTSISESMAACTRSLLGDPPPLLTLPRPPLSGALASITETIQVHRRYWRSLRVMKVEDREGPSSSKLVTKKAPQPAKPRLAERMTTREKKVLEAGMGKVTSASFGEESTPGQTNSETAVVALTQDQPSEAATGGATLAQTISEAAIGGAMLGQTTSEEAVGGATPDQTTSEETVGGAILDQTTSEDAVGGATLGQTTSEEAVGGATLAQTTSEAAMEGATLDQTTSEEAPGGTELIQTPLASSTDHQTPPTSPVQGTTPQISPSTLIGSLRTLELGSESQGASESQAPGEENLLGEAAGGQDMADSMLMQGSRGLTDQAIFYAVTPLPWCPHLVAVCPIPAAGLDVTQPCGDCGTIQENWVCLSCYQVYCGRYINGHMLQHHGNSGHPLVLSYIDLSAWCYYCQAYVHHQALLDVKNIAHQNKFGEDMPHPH

binding: binds
Substance: histone deacetylase 6 (HDAC6), endogenous (from UniProt Q9UBN7 1-1215)

Reference: article PMC12009987
